Source: patent US20150374663A1
These are yes or no findings as the source states them, for the method shown. Some results given as binding are weak or reduced against the parent protein; the word gives no strength.

Protein sequences, listed by entry. Tags and fused reporters are not part of them. Residues count along the entry.
UniProt P13686, residues 22-325: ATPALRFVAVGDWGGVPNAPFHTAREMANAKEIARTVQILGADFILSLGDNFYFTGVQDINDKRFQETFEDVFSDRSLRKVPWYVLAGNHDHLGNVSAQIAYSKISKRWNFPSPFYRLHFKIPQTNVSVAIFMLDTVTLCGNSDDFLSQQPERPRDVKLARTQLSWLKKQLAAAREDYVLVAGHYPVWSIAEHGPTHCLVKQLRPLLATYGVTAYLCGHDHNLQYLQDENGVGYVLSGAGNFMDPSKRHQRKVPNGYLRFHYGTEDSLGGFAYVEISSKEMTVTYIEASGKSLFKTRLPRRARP

What was measured:
[1] = target: TRAP deposited by osteoclasts on human cortical bone wafers (human) (UniProt P13686); test: confocal imaging of fluorescently labeled peptide incubated overnight on human cortical bone wafers
[2] = target: TRAP deposited by osteoclasts on human cortical bone wafers (human) (UniProt P13686); test: confocal fluorescence microscopy of fluorescently labelled peptide incubated on human cortical bone wafers

binding [1]: binds | binding [2]: binds
Binder: TPLSYLKGLVTVG [TRAP-binding peptide (TBP), …]
